# Results from US20090054259A1, “METHODS FOR INDUCING COMPLETE APOPTOSIS OF LIVER CELLS EXPRESSING HBCHI PROTEIN AND SCREENING FOR SUBSTANCES OR GENES THAT INHIBIT THE APOPTOSIS” (priority 2004, published 2009).
# System: Chang X31 cells
# Format: cell-based, human
compound,measurement,value
"CN[C@@H]1C[C@H]2O[C@@](C)([C@@H]1OC)n1c3ccccc3c3c4c(c5c6ccccc6n2c5c31)C(=O)NC4 [STS, staurosporine]",inhibition of the apoptosis of the liver cell line (conclusion),does not inhibit the apoptosis
